For one substance, binding results are on record in paper doi:10.1101/2023.07.22.550030.

Sequences of proteins named here, by UniProt entry; tags and fusion partners are left off. A change or cut given only in a name is not applied to a line headed by its entry. A line that says so, or that is headed by a name, gives the form on record, which may keep a tag or linker.
UniProt Q9BUJ2: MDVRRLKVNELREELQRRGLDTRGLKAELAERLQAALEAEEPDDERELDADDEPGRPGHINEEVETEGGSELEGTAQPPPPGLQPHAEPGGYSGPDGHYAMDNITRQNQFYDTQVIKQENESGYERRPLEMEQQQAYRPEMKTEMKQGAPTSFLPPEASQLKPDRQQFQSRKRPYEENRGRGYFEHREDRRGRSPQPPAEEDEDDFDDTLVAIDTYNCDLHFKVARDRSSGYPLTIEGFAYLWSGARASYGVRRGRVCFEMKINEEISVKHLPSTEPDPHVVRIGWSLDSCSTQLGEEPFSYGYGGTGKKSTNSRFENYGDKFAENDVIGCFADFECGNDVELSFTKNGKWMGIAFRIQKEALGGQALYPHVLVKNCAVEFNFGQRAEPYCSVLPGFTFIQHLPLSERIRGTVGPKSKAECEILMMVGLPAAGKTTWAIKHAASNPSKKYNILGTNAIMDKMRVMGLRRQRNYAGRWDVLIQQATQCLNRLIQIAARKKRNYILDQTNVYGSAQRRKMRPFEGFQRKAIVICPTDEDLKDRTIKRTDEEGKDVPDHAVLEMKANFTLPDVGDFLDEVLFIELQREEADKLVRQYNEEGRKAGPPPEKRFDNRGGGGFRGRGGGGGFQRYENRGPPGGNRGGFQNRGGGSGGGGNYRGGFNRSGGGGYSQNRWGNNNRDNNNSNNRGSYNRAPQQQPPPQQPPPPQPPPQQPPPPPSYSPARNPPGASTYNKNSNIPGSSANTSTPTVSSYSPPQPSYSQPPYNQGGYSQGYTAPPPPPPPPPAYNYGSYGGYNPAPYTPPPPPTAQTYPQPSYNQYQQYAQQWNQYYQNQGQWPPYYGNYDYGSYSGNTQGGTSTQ
FLAG-tagged hnRNPUL1 ΔWA (Walker A motif mutant) (Q9BUJ2, form named): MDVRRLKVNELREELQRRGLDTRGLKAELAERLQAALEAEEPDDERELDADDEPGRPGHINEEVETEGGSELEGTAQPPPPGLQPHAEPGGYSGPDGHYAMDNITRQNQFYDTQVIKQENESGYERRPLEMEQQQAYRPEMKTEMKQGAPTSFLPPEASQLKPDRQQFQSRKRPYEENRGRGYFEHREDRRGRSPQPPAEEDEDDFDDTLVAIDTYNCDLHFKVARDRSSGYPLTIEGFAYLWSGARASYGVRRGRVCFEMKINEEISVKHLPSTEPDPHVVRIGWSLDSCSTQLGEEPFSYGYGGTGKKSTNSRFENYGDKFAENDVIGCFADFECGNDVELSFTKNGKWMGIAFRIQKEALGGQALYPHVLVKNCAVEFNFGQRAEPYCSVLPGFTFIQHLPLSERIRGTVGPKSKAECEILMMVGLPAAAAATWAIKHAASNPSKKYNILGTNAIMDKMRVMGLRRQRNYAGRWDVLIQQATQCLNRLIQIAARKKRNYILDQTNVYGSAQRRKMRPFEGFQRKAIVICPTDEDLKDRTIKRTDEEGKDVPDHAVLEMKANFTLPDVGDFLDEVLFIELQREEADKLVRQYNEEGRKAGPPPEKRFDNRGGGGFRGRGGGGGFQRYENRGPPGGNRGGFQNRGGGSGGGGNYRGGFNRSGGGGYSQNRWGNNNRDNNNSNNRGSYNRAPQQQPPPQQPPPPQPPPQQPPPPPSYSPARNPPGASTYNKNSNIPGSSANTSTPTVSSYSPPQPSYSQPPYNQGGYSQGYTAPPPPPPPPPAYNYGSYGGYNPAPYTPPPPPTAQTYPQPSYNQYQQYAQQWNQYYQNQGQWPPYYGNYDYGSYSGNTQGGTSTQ
UniProt Q01844: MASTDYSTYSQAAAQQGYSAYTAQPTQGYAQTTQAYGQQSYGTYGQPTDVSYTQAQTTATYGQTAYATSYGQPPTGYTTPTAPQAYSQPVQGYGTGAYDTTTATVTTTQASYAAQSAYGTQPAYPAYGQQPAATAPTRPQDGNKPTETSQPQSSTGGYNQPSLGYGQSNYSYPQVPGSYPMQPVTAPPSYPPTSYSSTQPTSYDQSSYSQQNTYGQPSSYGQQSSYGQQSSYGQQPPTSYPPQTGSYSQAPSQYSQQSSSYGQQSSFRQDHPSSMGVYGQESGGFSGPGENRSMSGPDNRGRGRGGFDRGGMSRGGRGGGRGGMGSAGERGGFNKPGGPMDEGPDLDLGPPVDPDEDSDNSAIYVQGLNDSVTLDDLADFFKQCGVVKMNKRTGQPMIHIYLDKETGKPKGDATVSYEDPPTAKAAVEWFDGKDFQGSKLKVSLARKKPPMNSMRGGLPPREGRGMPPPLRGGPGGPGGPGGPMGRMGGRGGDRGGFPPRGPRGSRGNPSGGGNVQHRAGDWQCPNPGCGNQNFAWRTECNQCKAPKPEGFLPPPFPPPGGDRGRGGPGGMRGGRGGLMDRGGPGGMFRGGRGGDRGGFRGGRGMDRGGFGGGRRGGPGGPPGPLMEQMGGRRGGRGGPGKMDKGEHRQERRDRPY

The target in this test is FLAG-tagged hnRNPUL1 ΔWA (Walker A motif mutant) (human) (UniProt Q9BUJ2). Description: affinity purification with mass spectrometry.

Results are given in words; binding and its absence hold for the method and conditions named. In cells and extracts the contact can be indirect. A yes stands for co-enrichment or nearness to the bait. Other partners may have been found.

With EWSR1 (from UniProt Q01844 1-656), the binding result was “binds”.
